{"source": "patent US20170000799A1", "about": "“ORAL PHARMACEUTICAL COMPOSITION” (LABORATORIOS DEL DR. ESTEVE, S.A., priority 2013, published 2017)", "origin": "cited, not measured here", "note": "Some of these results come from one statement about several compounds together.", "data": [{"conditions": "25° C.", "units": {"solubility in water (practically insoluble)": "mg/L"}, "values": [{"smiles": "O=C(NC[C@H]1CN(c2ccc(N3CCOCC3=O)cc2)C(=O)O1)c1ccc(Cl)s1", "note": "[Rivaroxaban, 5-Cloro-N-[2-oxo-3-[4-(3-oxomorpholin-4-yl)phenyl]-1,3-oxazolidin-5(S)-ylmethyl]-thiophene-2-carboxamide]", "solubility in water (practically insoluble)": "< 100"}, {"smiles": "COc1ccc(-n2nc(C(N)=O)c3c2C(=O)N(c2ccc(N4CCCCC4=O)cc2)CC3)cc1", "note": "[apixaban]", "solubility in water (practically insoluble)": "< 100"}, {"smiles": "COc1ccc(NC(=O)c2ccc(C(=N)N(C)C)cc2)c(C(=O)Nc2ccc(Cl)cn2)c1", "note": "[betrixaban]", "solubility in water (practically insoluble)": "< 100"}, {"smiles": "[H]/N=C(/N)c1ccc(NCc2nc3cc(C(=O)N(CCC(=O)O)c4ccccn4)ccc3n2C)cc1", "note": "[dabigatran]", "solubility in water (practically insoluble)": "< 100"}, {"smiles": "CN1CCc2nc(C(=O)N[C@@H]3C[C@@H](C(=O)N(C)C)CC[C@@H]3NC(=O)C(=O)Nc3ccc(Cl)cn3)sc2C1", "note": "[edoxaban]", "solubility in water (practically insoluble)": "< 100"}, {"smiles": "COC(=O)[C@H](Cc1cccc(C(=N)N)c1)[C@@H](C)NC(=O)c1ccc(-c2cc[n+]([O-])cc2)cc1", "note": "[otamixaban]", "solubility in water (practically insoluble)": "< 100"}, {"smiles": "CCOC(=O)CN[C@@H](C(=O)N1CC[C@H]1C(=O)NCc1ccc(/C(N)=N\\O)cc1)C1CCCCC1", "note": "[ximelagatran]", "solubility in water (practically insoluble)": "< 100"}]}]}
